Test [1] concerns the target GST-fused SIN1-RBD (not stated (the printed accession is a human entry)) (UniProt Q9BPZ7). As to the kind of experiment: pull-down; purified GST-fused RBDs on glutathione agarose beads, incubated 1 h with cell lysates with overexpressed FLAG-tagged GTPases; wash buffer 50 mM Tris-HCl, 150 mM NaCl, 10 mM MgCl2; immunoblot; only the target purified.
Test [2] addresses GST-fused RAF1-RBD (UniProt P04049). Described as above.

Protein sequences, listed by entry. Tags and fused reporters are not part of them. Residues count along the entry.
UniProt Q9BPZ7, residues 266-373: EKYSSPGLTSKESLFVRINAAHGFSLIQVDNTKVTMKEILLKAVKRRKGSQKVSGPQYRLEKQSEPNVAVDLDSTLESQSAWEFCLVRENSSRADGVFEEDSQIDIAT

These are yes or no findings as the source states them, for the method shown. In cells and extracts the contact can be indirect. Some results given as binding are weak or reduced against the parent protein; the word gives no strength. Sequences can lack the tags named with a protein.

B1: ERAS with FLAG-Tag (protein, UniProt Q7Z444 1-233)
chain: MELPTKPGTFDLGLATWSPSFQGETHRAQARRRDVGRQLPEYKAVVVGASGVGKSALTIQLNHQCFVEDHDPTIQDSYWKELTLDSGDCILNVLDTAGQAIHRALRDQCLAVCDGVLGVFALDDPSSLIQLQQIWATWGPHPAQPLVLVGNKCDLVTTAGDAHAAAAALAHSWGAHFVETSAKTRQGVEEAFSLLVHEIQRVQEAMAKEPMARSCREKTRHQKATCHCGCSVA
As to B1, the binding entry in test [1] and in test [2] was “binds” in each case.

For the origin of these results see PMC9583166.
